Patent US20130012693
A negative result means that nothing was seen under these conditions.

Sequences of proteins named here, by UniProt entry; tags and fusion partners are left off. Residues count along the entry.
UniProt P01138, 122-241: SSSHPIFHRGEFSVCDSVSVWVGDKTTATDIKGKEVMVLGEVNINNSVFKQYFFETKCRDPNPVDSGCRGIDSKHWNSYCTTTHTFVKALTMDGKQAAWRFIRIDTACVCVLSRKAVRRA

Target: beta-NGF (Homo sapiens) (UniProt P01138)
Assay: filter binding
Details: purified recombinant protein, label: radiolabel, single-stranded DNA
[1] = BndU at Z' (n) positions [n positions 11,18,19,24,25,26,32,33,35 = modified dU], retained binding, variant of 2426-66
[2] = BndU at Z' (n) positions [n positions 10,17,18,23,24,25,31,32,34 = modified dU], retained binding, variant of 2426-66
[3] = BndU at Z' (n) positions [n positions 5,12,13,18,19,20,26,27,29 = modified dU], retained binding, variant of 2426-66
[4] = BndU at Z' (n) positions [n positions 15,22,23,28,29,30,36,37,39 = modified dU], retained binding, variant of 2426-66
[5] = BndU at Z' (n) positions [n positions 4,11,12,17,18,19,25,26,28 = modified dU], retained binding, variant of 2426-66
[6] = BndU at Z' (n) positions [n positions 6,13,14,19,20,21,27,28,30 = modified dU], retained binding, variant of 2426-66
[7] = BndU at Z' (n) positions [n positions 13,20,21,26,27,28,34,35,37 = modified dU], retained binding, variant of 2426-66

“GAGTGACCGTCTGCCTGCAGCGGGACACATGAGGACTTGGGGTTTAGCCG [2426-66-2]”: no binding (BndU at Z' (n) positions [n positions 30,37,38,43,44,45 = modified dU], did not retain binding, variant of 2426-66).

GACTTGGGGTTTAGCCGTTGTG [2426-66-58]: no binding (BndU at Z' (n) positions [n positions 4,5,10,11,12,18,19,21 = modified dU], did not retain binding, variant of 2426-66).

ACTTGGGGTTTAGCCGTTGTG [2426-66-59]: no binding (BndU at Z' (n) positions [n positions 3,4,9,10,11,17,18,20 = modified dU], did not retain binding, variant of 2426-66).

TGAGGACTTGGGGTTTAGCCGTTGTG [2426-66-72]: no binding (BndU at Z' (n) positions, dT at 22 [n positions 1,8,9,14,15,16,23,25 = modified dU], complete loss of affinity, variant of 2426-66-54).

“GACACATGAGGACTTGGGGTTTAGCCGTTGTG [2426-66-46]”: binds (BndU at Z' (n) positions [n positions 7,14,15,20,21,22,28,29,31 = modified dU], retained binding, variant of 2426-66).

“GCGGGACACATGAGGACTTGGGGTTTAGCCGTTGTG [2426-66-52]”: binds [1].

“ATGAGGACTTGGGGTTTAGCCGTTGTG [2426-66-76]”: binds (BndU at Z' (n) positions, dT at 10 and 17 [n positions 2,9,15,16,23,24,26 = modified dU], no loss of affinity vs unsubstituted control, variant of 2426-66-53).

“TGACCGTCTGCCTGCAGCGGGACACATGAGGACTTGGGGTTTAGCCGTTG [2426-66-5]”: no binding (BndU at Z' (n) positions [n positions 27,34,35,40,41,42,48,49 = modified dU], did not retain binding, variant of 2426-66).

“CGGGACACATGAGGACTTGGGGTTTAGCCGTTGTG [2426-66-43]”: binds [2].

“CACATGAGGACTTGGGGTTTAGCCGTTGTG [2426-66-48]”: binds [3].

“TGCCTGCAGCGGGACACATGAGGACTTGGGGTTTAGCCGTTGTGGCACAG [2426-66-13]”: binds (BndU at Z' (n) positions [n positions 19,26,27,32,33,34,40,41,43 = modified dU], retained binding, variant of 2426-66).

TGAGGACTTGGGGTTTAGCCGTTGTG [2426-66-68]: binds (BndU at Z' (n) positions, dT at 9 [n positions 1,8,14,15,16,22,23,25 = modified dU], no loss of affinity vs 2426-66-54, variant of 2426-66-54).

“GACCGTCTGCCTGCAGCGGGACACATGAGGACTTGGGGTTTAGCCGTTGT [2426-66-6]”: no binding (BndU at Z' (n) positions [n positions 26,33,34,39,40,41,47,48 = modified dU], did not retain binding, variant of 2426-66).

GGACTTGGGGTTTAGCCGTTGTG [2426-66-57]: no binding (BndU at Z' (n) positions [n positions 5,6,11,12,13,19,20,22 = modified dU], did not retain binding, variant of 2426-66).

“GGGACACATGAGGACTTGGGGTTTAGCCGTTGTG [2426-66-44]”: binds (BndU at Z' (n) positions [n positions 9,16,17,22,23,24,30,31,33 = modified dU], retained binding, variant of 2426-66).

“CACATGAGGACTTGGGGTTTAGCCGTTGTGGCACAGAGAAGAAACAAGAC [2426-66-38]”: binds [3].

“CCTGCAGCGGGACACATGAGGACTTGGGGTTTAGCCGTTGTGGCACAGAG [2426-66-15]”: binds (BndU at Z' (n) positions [n positions 17,24,25,30,31,32,38,39,41 = modified dU], retained binding, variant of 2426-66).

“CTGCCTGCAGCGGGACACATGAGGACTTGGGGTTTAGCCGTTGTGGCACA [2426-66-12]”: binds (BndU at Z' (n) positions [n positions 20,27,28,33,34,35,41,42,44 = modified dU], retained binding, variant of 2426-66).

“GGACACATGAGGACTTGGGGTTTAGCCGTTGTGGCACAGAGAAGAAACAA [2426-66-24]”: binds (BndU at Z' (n) positions [n positions 8,15,16,21,22,23,29,30,32 = modified dU], retained binding, variant of 2426-66).

“CTGCAGCGGGACACATGAGGACTTGGGGTTTAGCCGTTGTGGCACAGAGA [2426-66-16]”: binds (BndU at Z' (n) positions [n positions 16,23,24,29,30,31,37,38,40 = modified dU], retained binding, variant of 2426-66).

TGAGGACTTGGGGTTTAGCCGTTGTG [2426-66-73]: no binding (BndU at Z' (n) positions, dT at 23 [n positions 1,8,9,14,15,16,22,25 = modified dU], complete loss of affinity, variant of 2426-66-54).

“GCGGGACACATGAGGACTTGGGGTTTAGCCGTTGTGGCACAGAGAAGAAA [2426-66-21]”: binds [1].

“GCCTGCAGCGGGACACATGAGGACTTGGGGTTTAGCCGTTGTGGCACAGA [2426-66-14]”: binds (BndU at Z' (n) positions [n positions 18,25,26,31,32,33,39,40,42 = modified dU], retained binding, variant of 2426-66).

TGAGGACTTGGGGTTTAGCCGTTGTG [2426-66-71]: binds (BndU at Z' (n) positions, dT at 16 [n positions 1,8,9,14,15,22,23,25 = modified dU], no loss of affinity vs 2426-66-54, variant of 2426-66-54).

“TGCAGCGGGACACATGAGGACTTGGGGTTTAGCCGTTGTGGCACAGAGAA [2426-66-17]”: binds [4].

“TGCAGCGGGACACATGAGGACTTGGGGTTTAGCCGTTGTG [2426-66-30]”: binds [4].

“GCAGCGGGACACATGAGGACTTGGGGTTTAGCCGTTGTG [2426-66-40]”: binds (BndU at Z' (n) positions [n positions 14,21,22,27,28,29,35,36,38 = modified dU], retained binding, variant of 2426-66).

“CCGTCTGCCTGCAGCGGGACACATGAGGACTTGGGGTTTAGCCGTTGTGG [2426-66-8]”: binds (BndU at Z' (n) positions [n positions 24,31,32,37,38,39,45,46,48 = modified dU], retained binding, variant of 2426-66).

“ACATGAGGACTTGGGGTTTAGCCGTTGTG [2426-66-49]”: binds [5].

“GTCTGCCTGCAGCGGGACACATGAGGACTTGGGGTTTAGCCGTTGTGGCA [2426-66-10]”: binds (BndU at Z' (n) positions [n positions 22,29,30,35,36,37,43,44,46 = modified dU], retained binding, variant of 2426-66).

“ACCGTCTGCCTGCAGCGGGACACATGAGGACTTGGGGTTTAGCCGTTGTG [2426-66-7]”: binds (BndU at Z' (n) positions [n positions 25,32,33,38,39,40,46,47,49 = modified dU], retained binding, variant of 2426-66).

TGAGGACTTGGGGTTTAGCCGTTGTG [2426-66-77]: binds (BndU at Z' (n) positions, dT at 9 and 16 [n positions 1,8,14,15,22,23,25 = modified dU], no loss of affinity vs unsubstituted control, variant of 2426-66-54).

“CGGGACACATGAGGACTTGGGGTTTAGCCGTTGTGGCACAGAGAAGAAAC [2426-66-22]”: binds [2].

“TCTGCCTGCAGCGGGACACATGAGGACTTGGGGTTTAGCCGTTGTGGCAC [2426-66-11]”: binds (BndU at Z' (n) positions [n positions 21,28,29,34,35,36,42,43,45 = modified dU], retained binding, variant of 2426-66).

“ACACATGAGGACTTGGGGTTTAGCCGTTGTG [2426-66-47]”: binds [6].

“CAGCGGGACACATGAGGACTTGGGGTTTAGCCGTTGTG [2426-66-41]”: binds [7].

“CAGCGGGACACATGAGGACTTGGGGTTTAGCCGTTGTGGCACAGAGAAGA [2426-66-19]”: binds [7].

TGAGGACTTGGGGTTTAGCCGTTGTG [2426-66-70]: no binding (BndU at Z' (n) positions, dT at 15 [n positions 1,8,9,14,16,22,23,25 = modified dU], complete loss of affinity, variant of 2426-66-54).

“ACACATGAGGACTTGGGGTTTAGCCGTTGTGGCACAGAGAAGAAACAAGA [2426-66-26]”: binds [6].

AGGACTTGGGGTTTAGCCGTTGTG [2426-66-56]: no binding (BndU at Z' (n) positions [n positions 6,7,12,13,14,20,21,23 = modified dU], did not retain binding, variant of 2426-66).

“ACATGAGGACTTGGGGTTTAGCCGTTGTGGCACAGAGAAGAAACAAGACC [2426-66-39]”: binds [5].

TGAGGACTTGGGGTTTAGCCGTTGTG [2426-66-74]: no binding (BndU at Z' (n) positions, dT at 25 [n positions 1,8,9,14,15,16,22,23 = modified dU], complete loss of affinity, variant of 2426-66-54).
